PubChem BioAssay AID1671195, Yale University – 2021
The deposit covers about 22,000 reagents; below is an unselected part. Over the whole deposit, about 1,510 (6.9%) were called active. 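Active includes knockdowns raising or lowering LDL uptake; positive z-scores mean more uptake, negative mean less.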

Purpose: 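Genes whose knockdown alters LDL uptake in liver cancer cells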 (primary screen)
Cells: human Huh7 hepatoma cells
Reagents: siRNA pool against human genes, 18 nM
Timing: about 2 to 2.5 days of knockdown, then 8 h LDL uptake
Challenge: DiI-labelled LDL at 30 µg/ml for 8 h, in lipoprotein-deficient serum medium
Read-out: 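Per-cell DiI-LDL intensity by automated imaging; well means scaled to the plate median and given as a robust z-score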
Scale: robust z-score: higher = more LDL uptake after knockdown
Call rule: 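a gene counts as active if at least two replicate z-scores exceed ±2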

The opening 3 entries, ahead of the listing:
gene symbol	robust z-score, replicate 1	robust z-score, replicate 2	robust z-score, replicate 3	Outcome
AQP2 (GeneID 359)	-0.708	-0.811	-0.801	inactive
CYP17A1 (GeneID 1586)	0.845	0.629	0.607	inactive
CNGA4 (GeneID 1262)	-0.752	-0.648	-0.611	inactive

Results, from the start:
gene symbol	robust z-score, replicate 1	robust z-score, replicate 2	robust z-score, replicate 3	Outcome
AQP2 (GeneID 359)	-0.708	-0.811	-0.801	inactive
CYP17A1 (GeneID 1586)	0.845	0.629	0.607	inactive
CNGA4 (GeneID 1262)	-0.752	-0.648	-0.611	inactive
SPR (GeneID 6697)	0.3	-0.463	0.013	inactive
VMO1 (GeneID 284013)	-0.582	-0.649	-0.481	inactive
VSIG4 (GeneID 11326)	-0.0224	-0.528	0.169	inactive
FUT4 (GeneID 2526)	0.663	3.21	1.16	inactive
CASP8 (GeneID 841)	-1.17	-1.03	-0.584	inactive
KRT78 (GeneID 196374)	-1.09	-1.55	-2.06	inactive
RFX7 (GeneID 64864)	0.661	1.59	0.995	inactive
PRKD1 (GeneID 5587)	0.0128	-0.228	0.469	inactive
QRFPR (GeneID 84109)	-0.239	0.745	0.0777	inactive
CTR9 (GeneID 9646)	-0.592	-0.916	1.07	inactive
FADS3 (GeneID 3995)	1.23	0.397	-0.47	inactive
TRPC4AP (GeneID 26133)	0.514	0.391	0.159	inactive
LTB (GeneID 4050)	0.326	0.726	0.827	inactive
EMC7 (GeneID 56851)	0.435	1.11	1.4	inactive
OR56A5 (GeneID 390084)	0.629	0.808	0.6	inactive
GTF3C5 (GeneID 9328)	-0.343	-1.82	-2.1	inactive
RNF128 (GeneID 79589)	-1.52	-1.95	-1.29	inactive
KIAA1328 (GeneID 57536)	0.985	1.06	0.235	inactive
DZIP1 (GeneID 22873)	0.611	0.685	0.812	inactive
LOC387917 (retired record) (GeneID 387917)	-0.268	-0.104	-0.223	inactive
AP4S1 (GeneID 11154)	-1.55	-0.984	-1.07	inactive
CFAP90 (GeneID 134121)	1.37	0.75	1.22	inactive
ZNF599 (GeneID 148103)	1.83	0.948	1.1	inactive
LOC154761 (GeneID 154761)	-0.255	0.0081	-0.111	inactive
NUSAP1 (GeneID 51203)	2.27	3.42	0.0234	active
USP47 (GeneID 55031)	1.27	1.15	1.08	inactive
PSG9 (GeneID 5678)	-0.141	0.339	0.706	inactive
AP4M1 (GeneID 9179)	-0.706	-1.39	-0.921	inactive
ZNF789 (GeneID 285989)	-0.291	-0.462	-0.386	inactive
USP7 (GeneID 7874)	-0.786	-0.644	-0.331	inactive
WFDC8 (GeneID 90199)	-1.09	-1.42	-1.49	inactive
RPS6KB2 (GeneID 6199)	-0.628	-0.286	0.121	inactive
TMEM177 (GeneID 80775)	-1.22	-0.893	-0.859	inactive
CCT8L2 (GeneID 150160)	-0.334	-0.576	-1.08	inactive
LOC285694 (retired record) (GeneID 285694)	0.164	0.291	0.342	inactive
VRTN (GeneID 55237)	-0.28	1.8	0.598	inactive
KRT23 (GeneID 25984)	-0.185	-0.295	0.293	inactive
MAP3K2 (GeneID 10746)	-0.836	-1.11	-1.69	inactive
CDCA3 (GeneID 83461)	1.84	0.94	0.594	inactive
FERD3L (GeneID 222894)	0.0557	0.294	0.388	inactive
MED10 (GeneID 84246)	-0.124	-0.507	-1.19	inactive
CELF1 (GeneID 10658)	0.416	0.841	0.278	inactive
FLCN (GeneID 201163)	-1.58	-1.57	-0.842	inactive
LILRB1 (GeneID 10859)	-1.3	-1.11	-1.6	inactive
ZMYM6 (GeneID 9204)	-0.506	-1.35	-0.611	inactive
LOC391807 (retired record) (GeneID 391807)	-1.15	-1.52	-1.35	inactive
MSRB3 (GeneID 253827)	-0.328	-0.506	-0.541	inactive
PDRG1 (GeneID 81572)	0.35	0.936	0.742	inactive
GCNT1 (GeneID 2650)	0.915	2.14	1.26	inactive
RADIL (GeneID 55698)	-1.15	-1.78	2.29	inactive
ZNF445 (GeneID 353274)	-1.36	-1.29	-0.894	inactive
FAXDC2 (GeneID 10826)	2.1	1.93	1.17	active
TMPRSS15 (GeneID 5651)	-0.778	-1.07	-0.455	inactive
CDPF1 (GeneID 150383)	1.87	0.48	1.44	inactive
FGFRL1 (GeneID 53834)	1.05	1.4	1.44	inactive
CREB3L2 (GeneID 64764)	-0.393	-0.359	-0.519	inactive
WRAP73 (GeneID 49856)	1.23	-1.25	-0.0776	inactive
FUT9 (GeneID 10690)	0.154	1	0.654	inactive
LOC439955 (retired record) (GeneID 439955)	0.0217	0.0623	-0.447	inactive
FLI1 (GeneID 2313)	0.531	1.37	-0.204	inactive
FPR3 (GeneID 2359)	-1.78	-0.741	-1.35	inactive
LOC388459 (retired record) (GeneID 388459)	0.593	0.824	0.757	inactive
SLC23A2 (GeneID 9962)	2.31	2.19	3.02	active
LINC00891 (GeneID 441501)	1.29	1.17	1.04	inactive
ZFYVE28 (GeneID 57732)	-0.118	-0.307	0.28	inactive
SYTL5 (GeneID 94122)	2.5	2.84	3.17	active
LIFR (GeneID 3977)	0.614	0.448	0.523	inactive
ZNF16 (GeneID 7564)	1.21	1.75	0.713	inactive
PSMD1 (GeneID 5707)	0.911	1.06	0.993	inactive
C7 (GeneID 730)	1.94	1.14	2.66	active
TSPAN10 (GeneID 83882)	-1.42	-1.17	-0.939	inactive
GPR143 (GeneID 4935)	0.161	-0.733	0.0838	inactive
GLYATL1 (GeneID 92292)	-1.08	-0.502	-0.587	inactive
UBXN2B (GeneID 137886)	0.492	0.554	0.566	inactive
MED15 (GeneID 51586)	2.24	0.973	3.09	active
TTC12 (GeneID 54970)	-1.51	-1.56	-2.1	inactive
SLC25A36 (GeneID 55186)	-1.18	-1.61	-1.08	inactive
FAM24B (GeneID 196792)	-0.363	-0.673	-0.675	inactive
GALE (GeneID 2582)	-1.09	-0.795	-0.462	inactive
LOC390508 (retired record) (GeneID 390508)	0.935	0.602	1.06	inactive
IGF2-AS (GeneID 51214)	-0.157	-0.356	-0.243	inactive
PHF6 (GeneID 84295)	1.9	3.31	1.87	active
WFDC6 (GeneID 140870)	-0.556	-1.26	-0.993	inactive
UQCRC2 (GeneID 7385)	-0.391	-0.773	-0.598	inactive
